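Human melanoma cells were exposed to two drugs together for 72 h in 1,536-well plates and read by automated microscopy after fixing and staining. Each value is the count of nuclei relative to DMSO-treated wells, in %, so that 100 equals the control. Every drug was used at one fixed concentration, the lower of two screened (a fifth of the higher). These are primary screening values without error estimates.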 This is part of the screen, not chosen by result.

Compounds and concentrations:
perifosine (0.4 µM): CCCCCCCCCCCCCCCCCCOP(=O)([O-])OC1CC[N+](C)(C)CC1
CP-690550 (1 µM): C[C@@H]1CCN(C(=O)CC#N)C[C@@H]1N(C)c1ncnc2[nH]ccc12
gemcitabine (0.0004 µM): Nc1ccn([C@@H]2O[C@H](CO)[C@@H](O)C2(F)F)c(=O)n1
OSI-906 (0.4 µM): C[C@]1(O)C[C@@H](c2nc(-c3ccc4ccc(-c5ccccc5)nc4c3)c3c(N)nccn32)C1
XAV939 (2 µM): Oc1nc(-c2ccc(C(F)(F)F)cc2)nc2c1CSCC2
enzastaurin (0.8 µM): Cn1cc(C2=C(c3cn(C4CCN(Cc5ccccn5)CC4)c4ccccc34)C(=O)NC2=O)c2ccccc21
palbociclib (0.04 µM): CC(=O)c1c(C)c2cnc(Nc3ccc(N4CCNCC4)cn3)nc2n(C2CCCC2)c1=O
MK-2206 (0.4 µM): NC1(c2ccc(-c3nc4ccn5c(=O)[nH]nc5c4cc3-c3ccccc3)cc2)CCC1
cediranib (0.4 µM): COc1cc2c(Oc3ccc4[nH]c(C)cc4c3F)ncnc2cc1OCCCN1CCCC1
indole-3-carbinol (0.8 µM): OCc1c[nH]c2ccccc12
crizotinib (0.2 µM): C[C@@H](Oc1cc(-c2cnn(C3CCNCC3)c2)cnc1N)c1c(Cl)ccc(F)c1Cl
dasatinib (0.004 µM): Cc1nc(Nc2ncc(C(=O)Nc3c(C)cccc3Cl)s2)cc(N2CCN(CCO)CC2)n1
KU-55933 (1 µM): O=c1cc(-c2cccc3c2Sc2ccccc2S3)oc(N2CCOCC2)c1
PF-562271 (0.08 µM): CN(c1ncccc1CNc1nc(Nc2ccc3c(c2)CC(=O)N3)ncc1C(F)(F)F)S(C)(=O)=O
MK-1775 (0.02 µM): C=CCn1c(=O)c2cnc(Nc3ccc(N4CCN(C)CC4)cc3)nc2n1-c1cccc(C(C)(C)O)n1
PLX4720 (0.08 µM): CCCS(=O)(=O)Nc1ccc(F)c(C(=O)c2c[nH]c3ncc(Cl)cc23)c1F
SNS-032 (0.01 µM): CC(C)(C)c1cnc(CSc2cnc(NC(=O)C3CCNCC3)s2)o1
pazopanib (0.4 µM): Cc1ccc(Nc2nccc(N(C)c3ccc4c(C)n(C)nc4c3)n2)cc1S(N)(=O)=O
darinaparsin (0.4 µM): C[As](C)SC[C@H](NC(=O)CC[C@H](N)C(=O)O)C(=O)NCC(=O)O

Combination,COLO 792
darinaparsin + crizotinib,97.6
PLX4720 + OSI-906,92.6
cediranib + gemcitabine,97.9
OSI-906 + enzastaurin,102
KU-55933 + perifosine,92.1
gemcitabine + MK-1775,90.2
gemcitabine + PF-562271,68.7
OSI-906 + darinaparsin,104
perifosine + indole-3-carbinol,111
crizotinib + perifosine,96.3
CP-690550 + gemcitabine,92.6
crizotinib + CP-690550,89.9
pazopanib + palbociclib,82.8
crizotinib + SNS-032,95.5
indole-3-carbinol + OSI-906,101
XAV939 + dasatinib,42.0
KU-55933 + palbociclib,64.6
MK-2206 + indole-3-carbinol,72.7
pazopanib + enzastaurin,90.3
crizotinib + indole-3-carbinol,85.1
palbociclib + XAV939,40.4

For reference, 2 entries once more:

| Combination | COLO 792 |
|---|---|
| pazopanib + palbociclib | 82.8 |
| perifosine + indole-3-carbinol | 111 |

Data from the primary screen of doi:10.1371/journal.pone.0140310, rounded.